The values below come from article PMC8208791.

The target of the test is T1, Mms21 (S. cerevisiae) (UniProt P38632).
T1 sequence: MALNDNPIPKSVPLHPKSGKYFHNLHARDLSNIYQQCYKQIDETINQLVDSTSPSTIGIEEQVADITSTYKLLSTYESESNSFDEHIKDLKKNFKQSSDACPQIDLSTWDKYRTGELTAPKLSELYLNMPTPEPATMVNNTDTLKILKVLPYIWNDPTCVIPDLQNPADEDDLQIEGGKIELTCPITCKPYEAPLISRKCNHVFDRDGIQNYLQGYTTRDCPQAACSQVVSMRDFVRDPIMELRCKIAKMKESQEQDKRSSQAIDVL
As to the kind of experiment: two-hybrid; bait (J 965), prey (J 1493) and reporter (J 359) plasmids in strain JC 1280; 6 h in 2% glucose or 2% galactose at 30°C; beta-galactosidase activity with ONPG, OD420 normalised to OD600.

These are yes or no findings as the source states them, for the method shown. Some results given as binding are weak or reduced against the parent protein; the word gives no strength.

B1: Csm1 (protein, UniProt P25651 1-190)
chain: MDPLTVYKNSVKQQIDSADLLVANLVNENFVLSEKLDTKATEIKQLQKQIDSLNAQVKELKTQTSQQAENSEVIKDLYEYLCNVRVHKSYEDDSGLWFDISQGTHSGGSSDDYSIMDYKLGFVKGQAQVTEVIYAPVLKQRSTEELYSLQSKLPEYLFETLSFPLSSLNQFYNKIAKSLNKKREKKDETE
As to B1, the binding entry is “binds”.
